The source gives many values for each of these; only a part stands here.
Tests used:
Assay type in all cases: cell-based
Settings in all cases: U-87MG ATCC
[1] = Inhibition of RTK/PI3K/AKT/mTOR signaling in human U87 cells assessed as down regulation of SMARCA2 gene expression at cytotoxic IC50 measured after 48 hrs relative to control
[2] = Inhibition of RTK/PI3K/AKT/mTOR signaling in human U87 cells assessed as down regulation of GPAT3 gene expression at cytotoxic IC50 measured after 48 hrs relative to control
[3] = Inhibition of RTK/PI3K/AKT/mTOR signaling in human U87 cells assessed as down regulation of TPPP gene expression at cytotoxic IC50 measured after 48 hrs relative to control
[4] = Inhibition of RTK/PI3K/AKT/mTOR signaling in human U87 cells assessed as down regulation of STX3 gene expression at cytotoxic IC50 measured after 48 hrs relative to control
[5] = Inhibition of RTK/PI3K/AKT/mTOR signaling in human U87 cells assessed as down regulation of STIP1 gene expression at cytotoxic IC50 measured after 48 hrs relative to control
[6] = Inhibition of RTK/PI3K/AKT/mTOR signaling in human U87 cells assessed as down regulation of STAM2 gene expression at cytotoxic IC50 measured after 48 hrs relative to control
[7] = Inhibition of RTK/PI3K/AKT/mTOR signaling in human U87 cells assessed as down regulation of SHMT1 gene expression at cytotoxic IC50 measured after 48 hrs relative to control
[8] = Inhibition of RTK/PI3K/AKT/mTOR signaling in human U87 cells assessed as down regulation of SDCBP gene expression at cytotoxic IC50 measured after 48 hrs relative to control
[9] = Inhibition of RTK/PI3K/AKT/mTOR signaling in human U87 cells assessed as down regulation of COX6A1 gene expression at cytotoxic IC50 measured after 48 hrs relative to control
[10] = Inhibition of RTK/PI3K/AKT/mTOR signaling in human U87 cells assessed as down regulation of DHX38 gene expression at cytotoxic IC50 measured after 48 hrs relative to control
[11] = Inhibition of RTK/PI3K/AKT/mTOR signaling in human U87 cells assessed as down regulation of ARHGDIA gene expression at cytotoxic IC50 measured after 48 hrs relative to control
[12] = Inhibition of RTK/PI3K/AKT/mTOR signaling in human U87 cells assessed as down regulation of CDK6 gene expression at cytotoxic IC50 measured after 48 hrs relative to control
[13] = Inhibition of RTK/PI3K/AKT/mTOR signaling in human U87 cells assessed as down regulation of MCM7 gene expression at cytotoxic IC50 measured after 48 hrs relative to control
[14] = Inhibition of RTK/PI3K/AKT/mTOR signaling in human U87 cells assessed as up regulation of DGKE gene expression at cytotoxic IC50 measured after 48 hrs relative to control
[15] = Inhibition of RTK/PI3K/AKT/mTOR signaling in human U87 cells assessed as up regulation of FHL1 gene expression at cytotoxic IC50 measured after 48 hrs relative to control
[16] = Inhibition of RTK/PI3K/AKT/mTOR signaling in human U87 cells assessed as up regulation of SMURF2 gene expression at cytotoxic IC50 measured after 48 hrs relative to control
[17] = Inhibition of RTK/PI3K/AKT/mTOR signaling in human U87 cells assessed as up regulation of FKBP14 gene expression at cytotoxic IC50 measured after 48 hrs relative to control
[18] = Inhibition of RTK/PI3K/AKT/mTOR signaling in human U87 cells assessed as up regulation of A-kinase anchoring protein 8 gene expression at cytotoxic IC50 measured after 48 hrs relative to control
[19] = Inhibition of RTK/PI3K/AKT/mTOR signaling in human U87 cells assessed as up regulation of STEAP family member 1 gene expression at cytotoxic IC50 measured after 48 hrs relative to control
[20] = Inhibition of RTK/PI3K/AKT/mTOR signaling in human U87 cells assessed as up regulation of transmembrane protein 131 gene expression at cytotoxic IC50 measured after 48 hrs relative to control
[21] = Inhibition of RTK/PI3K/AKT/mTOR signaling in human U87 cells assessed as up regulation of linker for activation of T-cells family member 2 gene expression at cytotoxic IC50 measured after 48 hrs relative to control
[22] = Inhibition of RTK/PI3K/AKT/mTOR signaling in human U87 cells assessed as up regulation of ribosomal protein L22 gene expression at cytotoxic IC50 measured after 48 hrs relative to control
[23] = Inhibition of RTK/PI3K/AKT/mTOR signaling in human U87 cells assessed as up regulation of IKBKB interacting protein gene expression at cytotoxic IC50 measured after 48 hrs relative to control
[24] = Inhibition of RTK/PI3K/AKT/mTOR signaling in human U87 cells assessed as up regulation of ring finger protein 149 gene expression at cytotoxic IC50 measured after 48 hrs relative to control
[25] = Inhibition of RTK/PI3K/AKT/mTOR signaling in human U87 cells assessed as up regulation of nuclear receptor subfamily 2 group F member 6 gene expression at cytotoxic IC50 measured after 48 hrs relative to control
[26] = Inhibition of RTK/PI3K/AKT/mTOR signaling in human U87 cells assessed as up regulation of WDR45B gene expression at cytotoxic IC50 measured after 48 hrs relative to control
[27] = Inhibition of RTK/PI3K/AKT/mTOR signaling in human U87 cells assessed as up regulation of MYBBP1A gene expression at cytotoxic IC50 measured after 48 hrs relative to control
[28] = Inhibition of RTK/PI3K/AKT/mTOR signaling in human U87 cells assessed as up regulation of GRAMD1A gene expression at cytotoxic IC50 measured after 48 hrs relative to control
[29] = Inhibition of RTK/PI3K/AKT/mTOR signaling in human U87 cells assessed as up regulation of PATJ gene expression at cytotoxic IC50 measured after 48 hrs relative to control
[30] = Inhibition of RTK/PI3K/AKT/mTOR signaling in human U87 cells assessed as up regulation of CDC42EP1 gene expression at cytotoxic IC50 measured after 48 hrs relative to control
[31] = Inhibition of RTK/PI3K/AKT/mTOR signaling in human U87 cells assessed as up regulation of RPL6 gene expression at cytotoxic IC50 measured after 48 hrs relative to control
[32] = Inhibition of RTK/PI3K/AKT/mTOR signaling in human U87 cells assessed as up regulation of CERS2 gene expression at cytotoxic IC50 measured after 48 hrs relative to control

Which log2FC [1] does the source give for `CC(=O)C(=NNc1ccccc1C#N)C(C)=O` here?
Its log2FC is -2.4.

And the log2FC [2]?
Its log2FC is -1.33.

What about the log2FC [3] of the same compound?
The log2FC was -1.07.

And the log2FC [4]?
Its log2FC is -0.915.

What about the log2FC [5] of the same compound?
The log2FC was -0.878.

And the log2FC [6]?
The log2FC was -0.856.

And the log2FC [7]?
Its log2FC is -0.811.

And the log2FC [8]?
Its log2FC is -0.772.

What about the log2FC [9] of the same compound?
Its log2FC is -0.711.

And the log2FC [10]?
The log2FC was -0.71.

What about the log2FC [11] of the same compound?
The log2FC was -0.684.

What about the log2FC [12] of the same compound?
The log2FC was -0.639.

What about the log2FC [13] of the same compound?
Its log2FC is -0.524.

And the log2FC [14]?
Its log2FC is 2.56.

What about the log2FC [15] of the same compound?
The log2FC was 2.16.

What about the log2FC [16] of the same compound?
The log2FC was 1.79.

And the log2FC [17]?
The log2FC was 1.68.

And the log2FC [18]?
Its log2FC is 1.32.

What about the log2FC [19] of the same compound?
Its log2FC is 1.28.

And the log2FC [20]?
Its log2FC is 0.942.

And the log2FC [21]?
Its log2FC is 0.941.

And the log2FC [22]?
The log2FC was 0.939.

What about the log2FC [23] of the same compound?
Its log2FC is 0.864.

And the log2FC [24]?
The log2FC was 0.793.

What about the log2FC [25] of the same compound?
Its log2FC is 0.764.

What about the log2FC [26] of the same compound?
The log2FC was 0.621.

What about the log2FC [27] of the same compound?
The log2FC was 0.565.

What about the log2FC [28] of the same compound?
Its log2FC is 0.561.

And the log2FC [29]?
Its log2FC is 0.516.

And the log2FC [30]?
Its log2FC is 0.5.

What about the log2FC [31] of the same compound?
The log2FC was 0.427.

And the log2FC [32]?
Its log2FC is 0.393.

Source: ChEMBL document CHEMBL4316593 (Eur J Med Chem, 2019)
